According to patent publication US20150374784A1, “COMPOSITIONS AND METHODS FOR REDUCING GERM CELL DEATH” (Los Angeles Biomedical Research Institute at Harbor-UCLA …, priority 2014, published 2015):
At least one peptide structure holds a part that was inferred or is arguable (an end, a ring closure or a residue). Peptide text beside a SMILES is read from it.

Key:
cells = conditions: in some cells; cited from earlier work
male germ cells = format: in vivo, mouse
Protocol: For the HN analog experiments, male mice were divided into seven groups (n=4-5 per group) and received one of the following treatments and sacrificed after 24 hours: 1) vehicle (control); 2) a single intra-peritoneal (IP) injection of HN peptide [HN, 40 mg/Kg body weight (BW)]; 3) a single IP injection of CP (CP, 200 mg/Kg BW); 4) IP injection of CP and HN (CP+HN); 5) a single IP injection of each HN analog (HNG 5 mg/Kg BW, HNG-F6A 5 mg/Kg BW, HN-S7A 40 mg/Kg BW, HN-C8P 40 mg/Kg BW, or HN-L12A 40 mg/Kg BW); 6) IP injection of CP and each HN analog (CP+HNG, HNG-F6A, HN-S7A, HN-C8P, or HN-L12A); and 7) IP injection of CP+HN+HN analog (HN-S7A, HN-C8P, or HN-L12A; to assess whether the analogs has enhancing or inhibitory effect on HN).
To facilitate testicular fixation by using a whole-body perfusion technique, all animals were injected with heparin (130 IU/100 g BW, IP) 15 min before a lethal injection of sodium pentobarbital (200 mg/kg BW, IP) (Lue Y H, et al., 1999). One testis was removed and weighed after perfusion with saline. Portions of testicular parenchyma were snap frozen in liquid nitrogen, and stored at −80 C for Western blotting. The other testis was fixed by vascular perfusion with Bouin's solution, and processed with routine paraffin embedding for in situ detection of apoptosis.
Detection of apoptotic cells was performed in Bouin's′-fixed, paraffin-embedded testicular sections by the terminal deoxynucleotidyl transferase (TdT)-mediated deoxy-UTP nick end labeling (TUNEL) technique (Sinha Hikim A P, et al., 1997) using an ApopTag-peroxidase kit (Chemicon International, Inc., Temecula, Calif.). Enumeration of the Sertoli cell nuclei with distinct nucleoli and apoptotic germ cell population was quantified at stages I-IV (early stages), stages VII-VIII (middle stages) and stages XI-XII (late stages) of the seminiferous epithelial cycle using an Olympus BH-2 microscope (New Hyde Park, N.Y.). […] The rate of germ cell apoptosis (apoptotic index, AI) was expressed as the number of apoptotic germ cells per Sertoli cells (Sinha Hikim A P, et al., 1997).

4T1 cells = assay: 4T1 mouse mammary cancer model, tumor size and weight; format: in vivo
Protocol: A mouse mammary cancer model was used which utilizes 4T1 cells transfected with the luciferase gene. Growth and size of 4T1 mammary tumors were detected by bioluminescence imaging (IVIS Luminia II, Perkin Elmer, Waltham, Mass.). Mice (n=5 to 7 per group) were inoculated with 1×10^6 4 T1 cells into the right third mammary gland, and 7 days later they were left untreated or treated with HNG (5 mg/kg/day IP), CP (100 mg/Kg single IP) or HNG+CP for 14 days. Bioluminescence imaging was conducted at days 7 and 12. Animals were sacrificed and tumors were removed on day 14 after the start of treatment. Mammary tumors were smaller in CP and CP+HNG groups compared to the untreated and HNG-treated animals (Data images not shown).

IGF-1 = assay: Plasma IGF-1 in mice bearing metastatic lung melanomas; format: in vivo, mouse; conditions: 14 days; HNG 5 mg/kg/day IP; CP 200 mg/kg IP single injection
mouse B16 melanoma cells = assay: Number of metastatic lung tumors, B16 melanoma (Example 9); format: in vivo; conditions: day 21; CP 200 mg/kg single IP; HNG 5 mg/kg daily IP 14 days
Protocol: Methods: Adult male mouse (n=5/group) were seeded with mouse B16 melanoma cells (100,000 cells/mouse) via tail vein on day 1. One week after melanoma cell inoculation, mice were treated either with a single intraperitoneal injection (IP) of CP (200 mg/kg), or daily IP injections of HNG (5 mg/kg), or both for 14 days. Mice were sacrificed at day 21 and lungs were fixed in formaldehyde. Immunohistochemistry was performed on lung metastases with antibodies against phosphorylated-AMPK (p-AMPK), p-4E-BP1 (downstream effector of mTOR) and Ki-67 antigen (a marker of cell proliferation).

[1] = system: B16 murine melanoma cells; assay: Metastatic lung tumors in mouse B16 melanoma model (Experiments 3 and 4); format: in vivo
Protocol: A total of 25 young adult mice (10-12 weeks) were randomly divided into 5 groups (n=5 per group). Five mice were used as control. Twenty mice were inoculated intravenously with B16 murine melanoma cells (2×10^5 cells/mouse). Among these 20 tumor-inoculated mice, 5 mice received no further treatment. After one week, the remaining 15 mice were divided into 3 groups and injected with: 1) HNG daily IP (5 mg/Kg body weight) for 2 weeks; 2) CP (200 mg/Kg body weight IP single injection); 3) combined CP with HNG treatment (same doses as above). All mice were sacrificed 3 weeks after tumor inoculation, and 2 weeks after HNG and/or CP treatment. The animals were sacrificed with 5% pentobarbital (200 mg/kg body weight) IP injection after which blood was collected from the right atrium of the heart. One of the testes from each mouse was immersed fixed in Bouin's solution, and the mice were perfused with saline and subsequently perfuse-fixed with 5% glutaraldehyde in 0.05 M cacodylate buffer (pH 7.4). The lungs were dissected out and post fixed in 5% glutaraldehyde solution for 24 hours and stored in cacodylate buffer at 4° C. for the subsequent tumor count (Lue, et al., 2010; Lue, et al., 2009).
Experiment 3 was repeated after inoculation of B16 melanoma tumor at week 1 and then treated with the following treatment starting at week 2 (n=5 mice per group): 1). No treatment; 2). HNG IP injections 5 mg/Kg daily; 3) CP 200 mg/Kg single IP injection; 4) HNG 5 mg/Kg/day+CP; 5). HNG IP injections 15 mg/Kg daily; and 6). HNG 15 mg/Kg/day+CP. All animals were euthanized and perfused with 4% paraformaldehyde at the end of week 3. Lungs and testes were collected and processed as in experiment 3.
B16 melanoma tumors in the lung were quantified by counting the number of tumors on the surface of the lungs under stereomicroscopy (Collisson, et al., 2003; Craft, et al., 2005). The size of the tumor was measured using histomorphometry and expressed as average size of tumor. The appearance of the melanoma cells were reviewed and characterized by an expert pathologist.

[2] = Experiment 4, vs non-treated, HNG at both 5 mg/kg BW and 15 mg/kg BW, CP 200 mg/Kg

CC[C@H](C)[C@H](NC(=O)[C@H](CCC(=O)O)NC(=O)CNC(=O)[C@@H](NC(=O)[C@H](CC(C)C)NC(=O)[C@H](CC(C)C)NC(=O)[C@H](CC(C)C)NC(=O)[C@H](CC(C)C)NC(=O)[C@H](CS)NC(=O)[C@H](CO)NC(=O)[C@H](Cc1ccccc1)NC(=O)CNC(=O)[C@H](CCCNC(=N)N)NC(=O)[C@@H]1CCCN1C(=O)[C@H](C)NC(=O)[C@@H](N)CCSC)[C@@H](C)O)C(=O)N[C@@H](CC(=O)O)C(=O)N[C@@H](CC(C)C)C(=O)N1CCC[C@H]1C(=O)N[C@H](C(=O)N[C@@H](CCCCN)C(=O)N[C@@H](CCCNC(=N)N)C(=O)N[C@@H](CCCNC(=N)N)C(=O)N[C@@H](C)C(=O)O)C(C)C [HNG] (H-MAPRGFSCLLLLTGEIDLPVKRRA-OH; N-terminus and C-terminus assumed)
Cytoprotective Action: potency relative to HN (cells): 10 to 1000 times more potent than HN
potency relative to HN against CP-induced germ cell apoptosis (male germ cells; HNG at 1/8 the dose of HN): more potent than HN in vivo
spontaneous germ cell apoptosis, peptide alone (male germ cells; single IP, 24 hours, no CP): did not change the spontaneous germ cell apoptosis
prevention of CP-induced germ cell apoptosis, middle stages (male germ cells; stages VII-VIII, HNG, HNG-F6A 5 mg/kg BW): ~36%
CP-induced suppression of 4T1 mammary cancer growth (4T1 cells; HNG 5 mg/kg/day IP + CP 100 mg/Kg): enhanced the CP-induced suppression of 4T1 mouse mammary cancer growth
mammary tumor weight (4T1 cells; day 14 after start of treatment, CP 100 mg/Kg single IP, HNG 5 mg/kg/day IP): larger and heavier than the tumors in the CP and CP+HNG group
plasma IGF-1 levels (IGF-1): modestly suppressed IGF-1
decrease in number of metastatic lung tumors compared to non-treated mice (mouse B16 melanoma cells): ~23%
number of tumors, addition of HNG to CP vs CP alone ([1]; Experiment 3, HNG 5 mg/Kg daily + CP 200 mg/Kg): decreased the number of tumors as compared to CP treatment alone
size of the melanoma metastasis on the surface of the lungs ([1]; Experiment 3, vs non-treated tumor-bearing mice): appeared to have no effect on the size
number of metastatic tumors on the surface of the lungs ([1]; Experiment 3, vs non-treated tumor-bearing mice, HNG 5 mg/Kg daily IP 2 weeks, CP 200 mg/Kg single IP): appeared to decrease the number of tumors
number of tumors, HNG added concomitantly with CP vs either treatment alone ([1]; Experiment 4, HNG at both 5 mg/Kg BW and 15 mg/Kg BW + CP): significantly decreased the number of tumors than either treatment alone
number of lung tumors [1, 2]: significantly decreased the number of lung tumors
size of the lung tumors [1, 2]: not size of the tumors
histology of metastatic lung melanoma cells ([1]; HNG 5 mg/kg BW, CP, or both): did not change the histology of the melanoma cells
